Values from PubChem BioAssay AID1224828 (NIAID, 2016)
Test: 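Knock-downs that increase or decrease LPS-induced p65 nuclear translocation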 (primary screen). System: mouse RAW264.7 G9 macrophage reporter cells (GFP-p65, Tnf promoter-mCherry). Reagent: siRNA pool against mouse genes, 100 nM. Time to read-out: 2 days siRNA transfection, then 40 min LPS before fixation. Conditions: LPS (Salmonella minnesota R595) at 10 ng/ml. Detection: 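Imaged p65 nuclear translocation ratio, normalised to the plate median, converted to robust z-scores and averaged across two replicates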. Scale: p65 translocation robust z-score: higher = more nuclear NF-kappaB p65 after LPS than the plate median; nuclear/cytoplasmic p65 ratio: higher = more nuclear NF-kappaB p65. Rule for the call: 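Called active when z exceeds 3.3 or falls under -1.56 (median of Tlr4 controls), giving activity score of at least 50; no calls for control wells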. Calls: active = hit (p65 shift raised or lowered); inactive = no clear change.
Here is one part, drawn at random, of about 17,000 reagents tested. Of all reagents, 762 (4.5%) were called active. 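Active calls include both raised and lowered p65 entry, mostly lowered; wells with fewer than 50 cells lack a z-score.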 The raw values are shown without normalisation. Reagents against one gene are numbered here. Reagent sequences are not shown.

Target gene,reagent no.,p65 translocation robust z-score,"nuclear/cytoplasmic p65 ratio, rep 1","nuclear/cytoplasmic p65 ratio, rep 2",low cell count flag,Call
"Atp1b3 (ATPase, Na+/K+ transporting, beta 3 polypeptide)",1,-1.8,1.27,1.33,enough cells to score,active
Rpl9 (ribosomal protein L9),1,,1.63,1.23,fewer than 50 cells per well; well left out of scoring,inactive
Qtgal (queuosine-tRNA galactosyltransferase),1,0.29,1.36,1.54,enough cells to score,inactive
Gpc2 (glypican 2 cerebroglycan),1,-0.1,1.8,1.37,enough cells to score,inactive
Dbp (D site albumin promoter binding protein),1,-0.01,1.49,1.35,enough cells to score,inactive
Nell2 (NEL-like 2),1,-0.25,1.78,1.53,enough cells to score,inactive
"Cyp27b1 (cytochrome P450, family 27, subfamily b, polypeptide 1)",1,1.2,1.71,1.47,enough cells to score,inactive
"Pcdhgb8 (protocadherin gamma subfamily B, 8)",1,-1.26,1.27,1.14,enough cells to score,inactive
"Ryr1 (ryanodine receptor 1, skeletal muscle)",1,-0.52,1.48,1.41,enough cells to score,inactive
"Serpinb1c (serine (or cysteine) peptidase inhibitor, clade B, member 1c)",1,-1.69,1.18,1.12,enough cells to score,active
"Yipf4 (Yip1 domain family, member 4)",1,,1.49,1.23,fewer than 50 cells per well; well left out of scoring,inactive
Smc2 (structural maintenance of chromosomes 2),1,,1.73,1.08,fewer than 50 cells per well; well left out of scoring,inactive
Ncor1 (nuclear receptor co-repressor 1),1,-0.01,1.44,1.34,enough cells to score,inactive
"Sncg (synuclein, gamma)",1,-1.38,1.14,1.15,enough cells to score,inactive
Irgc (immunity related GTPase cinema),1,,1.49,1.36,fewer than 50 cells per well; well left out of scoring,inactive
"Gng3 (guanine nucleotide binding protein (G protein), gamma 3)",1,-0.24,1.49,1.53,enough cells to score,inactive
Nucleolin (nucleolin multifunctional protein),1,1.84,2.1,1.85,enough cells to score,inactive
Ampd3 (adenosine monophosphate deaminase 3),1,0.4,1.76,1.6,enough cells to score,inactive
"Drosha (drosha, ribonuclease type III)",1,-2.63,1.19,0.967,enough cells to score,active
Ncoa4 (nuclear receptor coactivator 4),1,-0.86,1.32,1.27,enough cells to score,inactive
Ano7 (anoctamin 7),1,-1.81,1.43,1.37,enough cells to score,active
"Cpn1 (carboxypeptidase N, polypeptide 1)",1,0.92,1.57,1.52,enough cells to score,inactive
H2bc6 (H2B clustered histone 6),1,1.36,1.74,1.62,enough cells to score,inactive
Ndufaf5 (NADH:ubiquinone oxidoreductase complex assembly factor 5),1,,1.22,1.02,fewer than 50 cells per well; well left out of scoring,inactive
Pacsin3 (protein kinase C and casein kinase substrate in neurons 3),1,0.97,1.55,1.56,enough cells to score,inactive
"Tnfsf14 (tumor necrosis factor (ligand) superfamily, member 14)",1,-1.69,1.27,1.33,enough cells to score,active
Sox10 (SRY (sex determining region Y)-box 10),1,0.06,1.56,1.56,enough cells to score,inactive
Apba2 (amyloid beta precursor protein binding family A member 2),1,0.93,1.61,1.77,enough cells to score,inactive
Slc2a9,1,,1.26,1.52,fewer than 50 cells per well; well left out of scoring,inactive
Trip4 (thyroid hormone receptor interactor 4),1,-0.6,1.55,1.3,enough cells to score,inactive
Aebp1 (AE binding protein 1),1,-0.41,1.56,1.61,enough cells to score,inactive
"Abcd3 (ATP-binding cassette, sub-family D member 3)",1,0.82,1.85,1.62,enough cells to score,inactive
Tssk3 (testis-specific serine kinase 3),1,-0.25,1.13,1.2,enough cells to score,inactive
Tssk3 (testis-specific serine kinase 3),2,-0.36,1.63,1.28,enough cells to score,inactive
Gnrhr (gonadotropin releasing hormone receptor),1,0.76,1.66,1.65,enough cells to score,inactive
Prpf40a (pre-mRNA processing factor 40A),1,1.15,1.79,1.59,enough cells to score,inactive
Zfp78 (zinc finger protein 78),1,,1.24,1.37,fewer than 50 cells per well; well left out of scoring,inactive
Birc5 (baculoviral IAP repeat-containing 5),1,-0.17,1.66,1.52,enough cells to score,inactive
Or8c17 (olfactory receptor family 8 subfamily C member 17),1,-0.44,1.32,1.27,enough cells to score,inactive
Or10g6 (olfactory receptor family 10 subfamily G member 6),1,-0.22,1.43,1.21,enough cells to score,inactive

Quoted from the listing, 8 entries:
Target gene,reagent no.,p65 translocation robust z-score,"nuclear/cytoplasmic p65 ratio, rep 1","nuclear/cytoplasmic p65 ratio, rep 2",low cell count flag,Call
"Abcd3 (ATP-binding cassette, sub-family D member 3)",1,0.82,1.85,1.62,enough cells to score,inactive
Tssk3 (testis-specific serine kinase 3),1,-0.25,1.13,1.2,enough cells to score,inactive
Tssk3 (testis-specific serine kinase 3),2,-0.36,1.63,1.28,enough cells to score,inactive
Gnrhr (gonadotropin releasing hormone receptor),1,0.76,1.66,1.65,enough cells to score,inactive
Prpf40a (pre-mRNA processing factor 40A),1,1.15,1.79,1.59,enough cells to score,inactive
Zfp78 (zinc finger protein 78),1,,1.24,1.37,fewer than 50 cells per well; well left out of scoring,inactive
Birc5 (baculoviral IAP repeat-containing 5),1,-0.17,1.66,1.52,enough cells to score,inactive
Or8c17 (olfactory receptor family 8 subfamily C member 17),1,-0.44,1.32,1.27,enough cells to score,inactive

The results go on.
Target gene,reagent no.,p65 translocation robust z-score,"nuclear/cytoplasmic p65 ratio, rep 1","nuclear/cytoplasmic p65 ratio, rep 2",low cell count flag,Call
Ly6g5c (lymphocyte antigen 6 family member G5C),1,-1.12,1.63,1.31,enough cells to score,inactive
Akap12 (A kinase anchor protein 12),1,0.37,1.56,1.79,enough cells to score,inactive
Ntan1 (N-terminal Asn amidase),1,-0.39,1.73,1.41,enough cells to score,inactive
Rad51c (RAD51 paralog C),1,0.64,1.62,1.6,enough cells to score,inactive
A630038E17Rik (RIKEN cDNA A630038E17 gene),1,3.3,1.5,1.99,enough cells to score,inactive
"Scube1 (signal peptide, CUB domain, EGF-like 1)",1,-0.96,1.31,1.1,enough cells to score,inactive
9430015G10Rik (RIKEN cDNA 9430015G10 gene),1,,1.36,1.41,fewer than 50 cells per well; well left out of scoring,inactive
"Cntrob (centrobin, centrosomal BRCA2 interacting protein)",1,-1.11,1.32,1.34,enough cells to score,inactive
Awat2 (acyl-CoA wax alcohol acyltransferase 2),1,,1.53,1.71,fewer than 50 cells per well; well left out of scoring,inactive
"Bhlha15 (basic helix-loop-helix family, member a15)",1,0.08,1.68,1.6,enough cells to score,inactive
"Myl6b (myosin, light polypeptide 6B)",1,-1.09,1.48,1.59,enough cells to score,inactive
Mdp1 (magnesium-dependent phosphatase 1),1,0.68,1.5,1.34,enough cells to score,inactive
Efhd2 (EF hand domain containing 2),1,,1.1,1.23,fewer than 50 cells per well; well left out of scoring,inactive
Erich5 (glutamate rich 5),1,-0.08,1.59,1.81,enough cells to score,inactive
Or1e19 (olfactory receptor family 1 subfamily E member 19),1,0.15,1.56,1.44,enough cells to score,inactive
Rin2 (Ras and Rab interactor 2),1,-0.5,1.28,1.22,enough cells to score,inactive
"Kcng3 (potassium voltage-gated channel, subfamily G, member 3)",1,-0.22,1.43,1.36,enough cells to score,inactive
Bex3 (brain expressed X-linked 3),1,-0.1,1.42,1.41,enough cells to score,inactive
Ppargc1a,1,-0.68,1.42,1.3,enough cells to score,inactive
Ppargc1a,2,,1.46,1.52,fewer than 50 cells per well; well left out of scoring,inactive
